Measurements as given in PubChem BioAssay AID1439 (NMMLSC, 2008).
Screen size: about 220,000 compounds; about 770 (0.35%) were called active. The shares of active, inactive and inconclusive entries below differ from those in the screen. Cut-off read from the data, not from the text of the source: active = binding response below about 49% or above about 150%; inconclusive = no clear call, values can overlap the other calls; inactive = in between.

The chains behind the UniProt entries cited, without tags or fusion partners.
UniProt P09471, whole entry, looked up: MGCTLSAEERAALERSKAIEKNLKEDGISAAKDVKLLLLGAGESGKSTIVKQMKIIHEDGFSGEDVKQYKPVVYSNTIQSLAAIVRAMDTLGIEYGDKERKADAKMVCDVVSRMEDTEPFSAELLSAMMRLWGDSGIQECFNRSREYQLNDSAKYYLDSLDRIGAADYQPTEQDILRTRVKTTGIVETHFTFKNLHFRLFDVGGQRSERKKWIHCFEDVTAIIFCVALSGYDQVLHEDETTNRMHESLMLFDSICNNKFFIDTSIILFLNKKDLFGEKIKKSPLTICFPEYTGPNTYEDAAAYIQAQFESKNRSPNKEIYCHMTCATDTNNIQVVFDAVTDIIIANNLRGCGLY

The compounds below were run against Guanine nucleotide-binding protein G(o) subunit alpha (Homo sapiens) (UniProt P09471) (assay: RGS7-Galphao binding modulators, primary screen, biochemical, multiplexed bead flow cytometry (AID 1439;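 note: fluorescent Galphao held in activated GDP-AlF4 state binding bead-coupled RGS7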)). Details: at 10 µM, actives lie on both sides.

Row | SMILES | binding response (% of control)
1 | COc1ccccc1/C=C/C=N/n1c(-c2cc(-c3ccccc3)n[nH]2)n[nH]c1=S | inconclusive: 78.6%
2 | CC(C)(C)NC(=S)N/N=C/c1cccnc1 | inconclusive: 86.4%
3 | Cc1nc(C(=O)NCCC(C)C)sc1C1(C)CC(c2ccccc2)=NO1 (centres undefined) | inconclusive: 87.3%
4 | Cc1cc(C)cc(-n2c(C)cc(/C=N/NC(=O)c3ccncc3)c2C)c1 | inconclusive: 112%
5 | O=C(O)c1cc(Cl)c2c(c1)OCO2 | inconclusive: 114%
6 | Nc1ncnc(Nc2c(F)cccc2F)n1 | inconclusive: 99.5%
7 | CCN1CCN(C(=O)Cn2nc(-c3ccc(Cl)cc3)ccc2=O)CC1 | active: 171% [activator]
8 | O=Nc1c(-c2cccc([N+](=O)[O-])c2)nc2ncccn12 | inconclusive: 377%
9 | Cc1ccc(OCCSc2ncccn2)c(C)c1 | inconclusive: 92.9%
10 | NC(=O)CC(NC(=O)c1ccccc1)c1ccc(N2CCC(Br)CC2)c([N+](=O)[O-])c1 (centres undefined) | inconclusive: 142%
11 | COc1ccc(-c2csc(NC(=S)NC(=O)c3ccccc3)n2)cc1Br | inconclusive: 81%
12 | Cc1ccc([N+](=O)[O-])cc1NC(=O)Nc1cccc(F)c1 | inconclusive: 77.4%
13 | O=C(O)c1ccc(N/N=C/c2cccc3cccnc23)cc1 | inconclusive: 96.4%
14 | CC(C)OP(=O)(OC(C)C)C(Nc1ccccc1)c1cccnc1 (centres undefined) | inconclusive: 98.4%
15 | C[n+]1cccc(/C=N/NC(=O)CC23CC4CC(CC(C4)C2)C3)c1 | inconclusive: 131%
16 | CCOC(=O)c1c(CC(C)C)csc1NC(=O)c1ccccc1C(=O)O | inconclusive: 96%
17 | O=C(Nc1cccc(F)c1)Nc1ccc2c(c1)C(=O)OC2 | inconclusive: 83.6%
18 | O=C(Nc1c(S(=O)(=O)c2ccccc2)csc1Br)c1ccccc1Cl | inconclusive: 98%
19 | COc1cc(NC(=O)CSc2cc(C)c3cc(C)cc(C)c3n2)c(C(=O)O)cc1OC | inconclusive: 78.7%
20 | COc1ccc(NC(=O)c2sccc2C)cn1 | inactive: 102%
21 | CCOc1ccc(-c2n[nH]c(C)c2-c2ccccn2)c(O)c1 | inconclusive: 80.5%
22 | CN1CCN(c2oc(/C=C/c3ccccc3)nc2C#N)CC1 | inconclusive: 93.7%
23 | Cc1ccc2c(=O)[nH]c(Nc3nc(C)cc(-c4ccccc4)n3)nc2c1 | inconclusive: 120%

Row | SMILES | binding response (% of control)
24 | O=C(OCC(=O)N1CCCC1)c1c2c(nc3ccccc13)CCCCC2 | inactive: 105%
25 | O=Cc1ccc(-c2ccc(C(=O)O)cc2)o1 | inconclusive: 130%
26 | N#Cc1ccc(N2C(=O)[C@@H]3C(C(=O)c4cnccn4)=NN[C@@H]3C2=O)cc1 | inconclusive: 111%
27 | S=c1[nH]nc(CSCc2ccccc2Cl)n1C1CCCCC1 | inconclusive: 124%
28 | O=C(NNc1ccc(Cl)cc1)c1c(F)cccc1Cl | inconclusive: 128%
29 | CCC(C)NC(=O)C1=CCN(S(=O)(=O)c2ccc(C)cc2)CC1 (centres undefined) | inconclusive: 51.9%
30 | CCOC(=O)C(Sc1cc(-c2ccccc2)nc2ncnn12)C(C)=O (centres undefined) | inconclusive: 25.7%
31 | O=C(COC(=O)CCc1ccc(S(=O)(=O)N2CCOCC2)cc1)NC(=O)NC1CCCCC1 | inactive: 98.2%
32 | CC1C(=O)CC(c2ccccc2)NC1c1ccccc1 (centres undefined) | inactive: 106%
33 | C#CCOCCOCCOCCNc1nc(N2CCN(C(=O)C([C@@H](C)CC)n3cc(C(N)CO)nn3)CC2)nc(N2CCN(C(=O)[C@H](CCC(=O)O)n3cc(C(N)Cc4ccc(O)cc4)nn3)CC2)n1 (some centres undefined) | inconclusive: 136%
34 | Nc1ccccc1Nc1cc(-c2ccccc2)[nH]n1 | inconclusive: 90.6%
35 | COc1ccc(C(=O)NNC(=O)C2CCCN(C3CC(=O)N(c4ccccc4)C3=O)C2)cc1 (centres undefined) | inconclusive: 104%
36 | Cc1[nH]c2ccccc2c1C(=O)NS(=O)(=O)Nc1ccc(F)cc1 | inactive: 100%
37 | CSCC[C@H](NC(=O)Nc1ccc(S(N)(=O)=O)cc1)C(=O)O | inconclusive: 152%
38 | Cc1nc(CS(=O)(=O)c2ccc(Cl)cc2)sc1C(=O)O | inconclusive: 101%
39 | CC1(C(=O)Nc2cccc3ccccc23)CC1(Br)Br (centres undefined) | inconclusive: 118%
40 | CCCCn1c(SCC(=O)Nc2nnc(C)s2)nnc1-c1ccncc1 | inactive: 107%
41 | Clc1ccc(CO/N=C/c2c(-c3ccccc3)nc3n2CCS3)c(Cl)c1 | inactive: 95.2%
42 | Cc1nonc1NC(=O)CSc1nc(C23CC4CC(CC(C4)C2)C3)nc2ccccc12 | inconclusive: 91.6%
43 | CC1CC(C)(C)NC(=S)N1CC(=O)N1CCN(Cc2ccccc2)CC1 (centres undefined) | inconclusive: 107%
44 | CC(C)Cn1c(N)c(C(=O)COC(=O)[C@@H]2CCCN2C(=O)c2cccs2)c(=O)n(C)c1=O | inconclusive: 91.6%
45 | Cc1ccccc1NC(=S)Nc1ccc2[nH]c(=O)[nH]c2c1 | inconclusive: 121%
46 | CC(C)[C@H](CO)N(Cc1cccc(F)c1)c1nc(Nc2cccc(Cl)c2)c2ncn(C(C)C)c2n1 | inconclusive: 110%

A second format for part of the listing above:
O=Cc1ccc(-c2ccc(C(=O)O)cc2)o1
  binding response (% of control): inconclusive: 130%
O=C(COC(=O)CCc1ccc(S(=O)(=O)N2CCOCC2)cc1)NC(=O)NC1CCCCC1
  binding response (% of control): inactive: 98.2%
C#CCOCCOCCOCCNc1nc(N2CCN(C(=O)C([C@@H](C)CC)n3cc(C(N)CO)nn3)CC2)nc(N2CCN(C(=O)[C@H](CCC(=O)O)n3cc(C(N)Cc4ccc(O)cc4)nn3)CC2)n1 (some centres undefined)
  binding response (% of control): inconclusive: 136%
Clc1ccc(CO/N=C/c2c(-c3ccccc3)nc3n2CCS3)c(Cl)c1
  binding response (% of control): inactive: 95.2%

(more compounds)

Row | SMILES | binding response (% of control)
47 | CNC(=O)c1cccc2nc3ccccc3nc12 | inconclusive: 78.9%
48 | Cc1nc2c(=O)oc3ccccc3c2n1-c1ccccc1 | inactive: 120%
49 | Cc1ccc([N+](=O)[O-])c2c1C(N1CCCC1)C(C)(C)O2 (centres undefined) | inconclusive: 105%
50 | Cc1cc(Cl)ccc1OCCCC(=O)NCCN1C(=O)S/C(=C\c2cccnc2)C1=O | inactive: 101%
51 | [NH-]c1ncnc2c1N=C[N+]2=CC=CCO | inconclusive: 301%
52 | O=C(Nc1cccnc1)c1cc(-c2ccccc2O)on1 | inconclusive: 83.2%
53 | CC(C)S(=O)(=O)C/C(N)=N/OS(=O)(=O)c1ccc(Cl)cc1 | inconclusive: 92.9%
54 | Cc1ccc(S(=O)(=O)NC2CCCCC2)c(C)c1NS(C)(=O)=O | inconclusive: 73.6%
55 | CCN1CCN(Cc2ccc(NC(=O)c3cc(NC(=O)c4cnnc5ccccc45)cc(OC)c3)cc2C(F)(F)F)CC1 | inconclusive: 92.6%
56 | CCCCOCCCNC(=O)N[C@H](C(=O)O)C(C)CC (some centres undefined) | inconclusive: 39.5%
57 | CCc1ccc(OCC(=O)N/N=C(\C)c2ccc(OC(F)F)cc2)cc1 | inactive: 109%
58 | Cn1c(SCC(=O)NNC(=S)Nc2ccccc2)nnc1-c1ccncc1 | inconclusive: 98.8%
59 | O=C(NC1CC1)C1=C[C@@H](c2c[nH]c3ccccc23)C[C@@H](OCCCCO)O1 | inconclusive: 96.8%
60 | CSc1nc(C)cc(Oc2ccccc2)n1 | inconclusive: 94.9%
61 | O=C(COc1ccc(Br)cc1)NCCO | inactive: 95.4%
62 | c1ccc2c(c1)nc(N1CCCCCC1)c1ccccc12 | inconclusive: -477%
63 | COc1ccc([N+](=O)[O-])cc1NS(=O)(=O)c1ccc(Cl)c(C(=O)Nc2sc3c(c2C#N)CCCCC3)c1 | inactive: 102%
64 | CC(C)(C)NC(=O)NC(=O)CN1CCN(c2ccccc2)CC1 | inconclusive: 132%
65 | COc1ccc(C(=O)Nc2ccc(S(=O)(=O)N3CCOCC3)cc2)cc1OC | inactive: 99.8%
66 | N/C(CC1CC1(Cl)Cl)=N\OC(=O)c1ccccc1 (centres undefined) | inconclusive: 127%
67 | NS(=O)(=O)c1ccc(NC(=S)N2CCN(c3cccc(Cl)c3)CC2)cc1 | inactive: 132%
68 | N#Cc1ccc(-c2cn(-c3ccccc3)c3[n+]2CCCS3)cc1 | inconclusive: 100%
69 | COc1cccc(C(C)N(C)Cc2nc(COc3ccccc3)no2)c1 (centres undefined) | inconclusive: 100%

Row | SMILES | binding response (% of control)
70 | O=C1S/C(=C/c2ccc(N3CCOCC3)o2)C(=O)N1Cc1ccc(F)cc1 | inactive: 103%
71 | COC(=O)c1ccc(CN2[C@H](C(=O)OC)C[C@@]3(O)[C@@H](O)[C@@H](O)[C@@H](O)C[C@@H]23)cc1 | inconclusive: 99.7%
72 | COc1ccc(-c2nnc(NC(=O)c3ccccc3C)o2)cc1 | inconclusive: 158%
73 | CCOC(=O)C1(CCOc2ccccc2)CCN(Cc2ccc3nonc3c2)CC1 | inactive: 102%
74 | CNC(=O)c1ccc(=O)n(Cc2cccc(C(F)(F)F)c2)c1 | inconclusive: 93.7%
75 | CC(C)(C)c1cc(C(=O)C[n+]2ccc(C(=O)NCCCO)cc2)cc(C(C)(C)C)c1O | inconclusive: -52.1%
76 | CC(=O)Nc1cccc(/C(C)=N/NC(=O)c2ccc(O)cc2)c1 | inconclusive: 102%
77 | O=C(N/C(=C/C=C\c1ccccc1)C(=O)N1CCOCC1)c1ccc(Br)cc1 | inconclusive: 81.2%
78 | COC(=O)c1scc2c(=O)cc(C(F)(F)F)[nH]c12 | inconclusive: 97.9%
79 | S=c1[nH]nc(-c2cc(-c3ccccn3)nc3ccccc23)o1 | inconclusive: 80.9%
80 | CCOC(=O)c1[nH]ncc1CN1CCN(Cc2ccccc2)C(CCO)C1 (centres undefined) | inactive: 98.2%
81 | CC(C)(C)NC(=O)NC(=O)CN1CCN(S(=O)(=O)c2ccccc2)CC1 | inconclusive: 123%
82 | CCOC(=O)c1cc(-c2csc(N/N=C/c3ccccc3Cl)n2)on1 | inconclusive: 183%
83 | COCCCNC(=O)CCC(=O)NNc1nc2ccccc2c2nc(C)nn12 | inconclusive: 127%
84 | O=C(NC1=NCCS1)c1cc(-c2cccs2)nc2ccccc12 | inconclusive: 94.7%
85 | CCOc1[nH]n(-c2ccccc2)c(=O)c1C=NCc1ccncc1 | inconclusive: 102%
86 | Cc1ccc(NC(=O)CN(C)C(=O)COc2cccc3cccnc23)cc1 | inactive: 103%
87 | Cc1ccc(NC(=O)c2ccc3ncsc3c2)cc1S(=O)(=O)N(C)C | inconclusive: 120%
88 | Cc1cc(C(=O)OCC(=O)NCc2ccc3c(c2)OCO3)c2ccccc2n1 | inconclusive: 115%
89 | O=C(CSc1nnc(-c2ccc3c(c2)OCO3)o1)Nc1ncc(C(F)(F)F)cc1Cl | inconclusive: 103%
